Plain letter strings leave the end groups untold.
Assay: general procedure: Fmoc solid-phase peptide synthesis; rink-amide resin (GLC, Shanghai, China); HBTU/DIPEA in DMF
Settings: whole synthesis

Row | Sequence | final purity (method not given) [%]
1 | AKIQGMDPVWVTA | 96.0
2 | KIQGMDPVWVT | 96.9
